The values that follow come from patent US20240025959A1.

Amino acid sequences for entries named in this document (tags omitted).
UniProt Q96P20: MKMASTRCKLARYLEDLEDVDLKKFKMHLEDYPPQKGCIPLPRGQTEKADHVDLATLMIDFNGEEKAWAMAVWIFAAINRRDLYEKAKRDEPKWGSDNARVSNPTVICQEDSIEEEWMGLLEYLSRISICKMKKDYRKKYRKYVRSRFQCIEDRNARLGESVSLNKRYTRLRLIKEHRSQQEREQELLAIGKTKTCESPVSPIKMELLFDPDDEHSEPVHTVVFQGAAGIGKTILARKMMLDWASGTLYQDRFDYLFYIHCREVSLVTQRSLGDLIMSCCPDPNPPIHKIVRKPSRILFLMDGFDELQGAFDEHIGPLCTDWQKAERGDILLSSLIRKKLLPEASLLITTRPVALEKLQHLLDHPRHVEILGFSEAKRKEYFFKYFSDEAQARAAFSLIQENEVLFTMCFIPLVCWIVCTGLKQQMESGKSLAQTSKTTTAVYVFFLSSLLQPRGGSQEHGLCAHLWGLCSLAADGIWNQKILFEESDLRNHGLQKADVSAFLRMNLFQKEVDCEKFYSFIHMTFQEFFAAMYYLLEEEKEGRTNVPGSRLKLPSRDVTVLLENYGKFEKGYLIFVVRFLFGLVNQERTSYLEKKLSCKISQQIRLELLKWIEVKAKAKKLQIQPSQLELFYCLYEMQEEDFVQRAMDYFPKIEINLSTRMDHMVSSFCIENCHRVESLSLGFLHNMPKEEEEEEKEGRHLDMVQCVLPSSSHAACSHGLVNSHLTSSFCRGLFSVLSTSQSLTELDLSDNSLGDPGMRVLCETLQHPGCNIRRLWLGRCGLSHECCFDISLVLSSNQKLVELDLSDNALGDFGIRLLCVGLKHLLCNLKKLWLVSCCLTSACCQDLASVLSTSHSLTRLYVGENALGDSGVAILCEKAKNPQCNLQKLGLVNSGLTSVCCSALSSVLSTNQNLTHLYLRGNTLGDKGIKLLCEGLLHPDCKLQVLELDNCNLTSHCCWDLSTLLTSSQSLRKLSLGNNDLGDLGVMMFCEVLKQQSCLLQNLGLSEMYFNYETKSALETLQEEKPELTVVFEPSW

Experiment [1] addresses T1, ATG9A (human) (human) (UniProt Q7Z3C6).
T1 sequence (looked up): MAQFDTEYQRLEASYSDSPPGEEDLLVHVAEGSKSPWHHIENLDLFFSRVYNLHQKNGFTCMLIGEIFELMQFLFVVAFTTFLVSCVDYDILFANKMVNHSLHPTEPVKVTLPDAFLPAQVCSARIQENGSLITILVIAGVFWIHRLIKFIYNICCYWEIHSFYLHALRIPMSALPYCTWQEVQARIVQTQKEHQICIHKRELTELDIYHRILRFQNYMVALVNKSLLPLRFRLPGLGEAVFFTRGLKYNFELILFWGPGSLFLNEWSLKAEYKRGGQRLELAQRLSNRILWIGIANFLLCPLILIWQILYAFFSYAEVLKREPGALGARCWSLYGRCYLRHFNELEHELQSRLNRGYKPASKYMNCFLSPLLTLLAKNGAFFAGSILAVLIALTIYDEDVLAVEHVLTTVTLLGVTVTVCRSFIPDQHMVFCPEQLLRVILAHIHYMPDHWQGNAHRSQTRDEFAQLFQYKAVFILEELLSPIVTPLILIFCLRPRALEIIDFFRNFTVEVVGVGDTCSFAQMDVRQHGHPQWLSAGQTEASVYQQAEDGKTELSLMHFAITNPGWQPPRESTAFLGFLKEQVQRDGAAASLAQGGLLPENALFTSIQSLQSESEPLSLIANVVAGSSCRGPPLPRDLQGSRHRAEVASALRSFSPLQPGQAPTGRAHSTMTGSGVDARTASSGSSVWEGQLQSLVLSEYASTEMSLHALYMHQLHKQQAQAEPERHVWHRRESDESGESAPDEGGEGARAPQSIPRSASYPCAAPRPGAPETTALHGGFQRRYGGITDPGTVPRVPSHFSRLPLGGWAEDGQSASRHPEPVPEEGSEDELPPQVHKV
In words: discussion of Example 1; co-IP of Flag-NLRP3 with HA-ATG9A in BECN2 KO HEK293T cells (FIG. 30E).

Experiment [2] deals with T1, ATG9A (human) (human). In words: co-IP with anti-Flag beads; WT, BECN2 KO and ULK1 KO HEK293T cells co-transfected with HA-ATG9A and Flag-NLRP3 (FIG. 30E).

These are yes or no findings as the source states them, for the method shown. In cells and extracts the contact can be indirect. Some entries that bind do so weakly or less than the wild type.

Regarding “NLRP3 (human, full length) (from UniProt Q96P20 1-1036)”, the binding entry with ATG9A (human) (human) [1] and in the experiment with ATG9A (human) (human) [2] was “binds” each time.
